The list shows only some results of the screen, not a fair sample: it is rich in T/C values a quarter to a half above the control, in often repeated tests (any T/C) and in doses without a T/C. Further doses and runs are listed elsewhere. T/C gives the treated animals as a percentage of the vehicle group. Some entries give survivors of the animals treated and no T/C: the source holds a T/C of zero for them, seemingly a mark for toxic or unscored doses. Some survivor counts are full or nearly so, which does not show that the dose was tolerated: survival well below the control is almost never listed, so the zero probably covers shortened survival too. Counts of survivors are from the toxicity check (mostly the fifth day) where no day follows; animals may have died later. Schedule codes are those of the source, taken here to give the interval after Q, in days (D) or hours (H), and the number of doses after X. For survival time, this PubChem deposit counts one and a half times the control or more as active, and values a quarter to a half above the control carry no call in these data; other NCI protocols may use other cut-offs. Some doses were run more than once; the results are listed from low to high.
Test system: L1210 leukemia ip in BDF1 mice, survival T/C
Experiment: NCI In Vivo Anticancer Drug Screen. Data for tumor model L1210 Leukemia (intraperitoneal) in B6D2F1 (BDF1) mice
Settings: T/C endpoint: mean survival time, higher T/C = longer survival
[1] = dose: 400.0 mg/kg/injection, schedule: Q01DX001 (ip), vehicle: saline
[2] = dose: 400.0 mg/kg/injection, schedule: Q04DX002 (ip), vehicle: Klucel (hydroxypropylcellulose) (HPC)
[3] = dose: 200.0 mg/kg/injection, schedule: Q01DX001 (ip), vehicle: saline
[4] = dose: 400.0 mg/kg/injection, schedule: Q04DX003 (ip), vehicle: saline with Tween-80
[5] = dose: 300.0 mg/kg/injection, schedule: Q01DX001 (ip), vehicle: saline
[6] = dose: 200.0 mg/kg/injection, schedule: Q01DX009 (ip), vehicle: carboxymethylcellulose (CMC)
[7] = dose: 400.0 mg/kg/injection, schedule: Q01DX009 (ip), vehicle: carboxymethylcellulose (CMC)
[8] = dose: 400.0 mg/kg/injection, schedule: Q04DX003 (ip), vehicle: Klucel (hydroxypropylcellulose) (HPC)

**Q.** How did the survivor count (dose: 75.0 mg/kg/injection, schedule: Q04DX003 (ip), vehicle: saline with Tween-80) turn out when `CC(C)(C)C(=O)CC(=O)C(C)(C)C.CC(C)(C)C(=O)CC(=O)C(C)(C)C.[Cu]` was run?
**A.** 5 of 6

**Q.** And the survivor count (dose: 150.0 mg/kg/injection, schedule: Q04DX003 (ip), vehicle: saline with Tween-80)?
**A.** 0 of 6

**Q.** What about the survivor count (dose: 300.0 mg/kg/injection, schedule: Q01DX001 (ip), vehicle: other) of the same compound?
**A.** 2 of 6

**Q.** And the survivor count (dose: 300.0 mg/kg/injection, schedule: Q04DX003 (ip), vehicle: saline with Tween-80)?
**A.** 1 of 6

**Q.** `C=COC(=O)N(C)C` was tested. Which survivor count [1] did it give?
**A.** 2 of 6

**Q.** For `CCN(CC)CCCN=C(N)CCl`, which survivor count (dose: 50.0 mg/kg/injection, schedule: Q01DX009 (ip), vehicle: Klucel (hydroxypropylcellulose) (HPC)) is on record?
**A.** 0 of 3

**Q.** What about the survivor count (dose: 100.0 mg/kg/injection, schedule: Q04DX002 (ip), vehicle: Klucel (hydroxypropylcellulose) (HPC)) of the same compound?
**A.** 0 of 3

**Q.** What about the survivor count (dose: 200.0 mg/kg/injection, schedule: Q04DX002 (ip), vehicle: Klucel (hydroxypropylcellulose) (HPC)) of the same compound?
**A.** 0 of 3

**Q.** And the survivor count [2]?
**A.** 0 of 3

**Q.** How did the survivor count (dose: 40.0 mg/kg/injection, schedule: Q01DX001 (ip), vehicle: saline) turn out when `CCC[N+](CCC)(CCC)Cc1ccccc1` was run?
**A.** 1 of 4

**Q.** And the survivor count (dose: 50.0 mg/kg/injection, schedule: Q01DX001 (ip), vehicle: saline)?
**A.** 0 of 4

**Q.** What about the survivor count (dose: 80.0 mg/kg/injection, schedule: Q01DX001 (ip), vehicle: saline) of the same compound?
**A.** 0 of 4

**Q.** And the survivor count (dose: 100.0 mg/kg/injection, schedule: Q01DX001 (ip), vehicle: saline)?
**A.** 0 of 4

**Q.** What about the survivor count [3] of the same compound?
**A.** 0 of 4

**Q.** What about the survivor count [1] of the same compound?
**A.** 0 of 4

**Q.** How did the survivor count (dose: 200.0 mg/kg/injection, schedule: Q01DX009 (ip), vehicle: saline) turn out when `COC1C2CCC1[N+](C)(C)CC2` (stereo unspecified) was run?
**A.** 0 of 6

**Q.** What about the survivor count (dose: 400.0 mg/kg/injection, schedule: Q01DX009 (ip), vehicle: saline) of the same compound?
**A.** 0 of 6

**Q.** For `Cn1c(C[N+](C)(C)C)cc2ccccc21`, which survivor count [4] is on record?
**A.** 0 of 6

**Q.** How did the survivor count [4] turn out when `COc1ccc(-c2nc(N)ncc2CSC)cc1` was run?
**A.** 3 of 3

**Q.** How did the survivor count (dose: 40.0 mg/kg/injection, schedule: Q04DX003 (ip), vehicle: saline) turn out when `CCOc1ccc([N+](=O)[O-])cc1CN(CC)CC` was run?
**A.** 3 of 6

**Q.** And the survivor count (dose: 75.0 mg/kg/injection, schedule: Q01DX001 (ip), vehicle: saline)?
**A.** 0 of 6

**Q.** And the survivor count (dose: 150.0 mg/kg/injection, schedule: Q01DX001 (ip), vehicle: saline)?
**A.** 0 of 6

**Q.** What about the survivor count [5] of the same compound?
**A.** 0 of 6

**Q.** Which results are given for `O=NN(CCCl)C(=O)Nc1cccc(O)c1`?
**A.** T/C (dose: 2.5 mg/kg/injection, schedule: Q01DX009 (ip), vehicle: carboxymethylcellulose (CMC)): 126 % of control; T/C (dose: 5.0 mg/kg/injection, schedule: Q01DX009 (ip), vehicle: carboxymethylcellulose (CMC)): 147 % of control; T/C (dose: 10.0 mg/kg/injection, schedule: Q01DX009 (ip), vehicle: carboxymethylcellulose (CMC)): 136 % of control; T/C (dose: 15.0 mg/kg/injection, schedule: Q01DX001 (ip), vehicle: carboxymethylcellulose (CMC)): 138 % of control; T/C (dose: 17.0 mg/kg/injection, schedule: Q01DX001 (ip), vehicle: carboxymethylcellulose (CMC)): 130 % of control; T/C (dose: 26.0 mg/kg/injection, schedule: Q01DX001 (ip), vehicle: carboxymethylcellulose (CMC)): 127 % of control; T/C (dose: 40.0 mg/kg/injection, schedule: Q01DX001 (ip), vehicle: carboxymethylcellulose (CMC)): 138 % of control; survivor count (dose: 60.0 mg/kg/injection, schedule: Q01DX009 (ip), vehicle: carboxymethylcellulose (CMC)): 6 of 6; survivor count (dose: 150.0 mg/kg/injection, schedule: Q01DX001 (ip), vehicle: carboxymethylcellulose (CMC)): 6 of 6; survivor count (dose: 300.0 mg/kg/injection, schedule: Q01DX001 (ip), vehicle: carboxymethylcellulose (CMC)): 4 of 6

**Q.** Which results are given for `Cc1ccc(NC(=O)Nc2ccc(C)c(NC(=O)Nc3ccc(C)c(Cl)c3)c2)cc1Cl`?
**A.** survivor count (dose: 200.0 mg/kg/injection, schedule: Q04DX003 (ip), vehicle: saline with Tween-80): 6 of 6; survivor count [4]: 6 of 6

**Q.** Which results are given for `C/C=C/C(=O)Nc1cccc(C(F)(F)F)c1`?
**A.** survivor count (dose: 200.0 mg/kg/injection, schedule: Q01DX009 (ip), vehicle: other): 6 of 6; survivor count (dose: 400.0 mg/kg/injection, schedule: Q01DX009 (ip), vehicle: other): 4 of 6

**Q.** `O=C(O)c1cc(-c2ccc(-c3ccc(-c4cc(C(=O)O)c5cc(Cl)ccc5n4)cc3)cc2)nc2ccc(Cl)cc12` was tested. Which survivor count (dose: 100.0 mg/kg/injection, schedule: Q01DX009 (ip), vehicle: saline with Tween-80) did it give?
**A.** 6 of 6

**Q.** What about the T/C (dose: 200.0 mg/kg/injection, schedule: Q01DX009 (ip), vehicle: saline with Tween-80) of the same compound?
**A.** 126 % of control

**Q.** And the T/C (dose: 400.0 mg/kg/injection, schedule: Q01DX009 (ip), vehicle: saline with Tween-80)?
**A.** 130 % of control

**Q.** For `CSC(c1ccc(Oc2ccccc2)cc1)=[N+]1CCCCC1`, which survivor count (dose: 75.0 mg/kg/injection, schedule: Q01DX001 (ip), vehicle: steroid suspending solution) is on record?
**A.** 0 of 6

**Q.** And the survivor count (dose: 150.0 mg/kg/injection, schedule: Q01DX001 (ip), vehicle: steroid suspending solution)?
**A.** 1 of 6

**Q.** What about the survivor count (dose: 300.0 mg/kg/injection, schedule: Q01DX001 (ip), vehicle: steroid suspending solution) of the same compound?
**A.** 0 of 6

**Q.** How did the survivor count [2] turn out when `COc1cc2c(cc1OC)C1Cc3ccc(OC)c(OC)c3CN1CC2` (stereo unspecified) was run?
**A.** 1 of 3

**Q.** Which results are given for `O=S(=O)(Nc1cccc(C(F)(F)F)c1)c1cc(Cl)c(Cl)cc1Cl`?
**A.** survivor count (dose: 50.0 mg/kg/injection, schedule: Q01DX009 (ip), vehicle: carboxymethylcellulose (CMC)): 3 of 3; T/C (dose: 100.0 mg/kg/injection, schedule: Q01DX009 (ip), vehicle: carboxymethylcellulose (CMC)): 89, 90, 91, 101 % of control; T/C [6]: 90 and 93 % of control; survivor count [6]: 3 of 3; T/C [7]: 86, 88, 90 % of control; survivor count [7]: 3 of 3

**Q.** For `CN(C)CCOC(=O)c1cccc(CCl)c1`, which T/C (dose: 100.0 mg/kg/injection, schedule: Q04DX002 (ip), vehicle: saline) is on record?
**A.** 129 % of control

**Q.** With `C1=C(c2ccccc2)CC2CCCC1N2Cc1ccccc1` (stereo unspecified) as the compound, how does the survivor count (dose: 100.0 mg/kg/injection, schedule: Q04DX003 (ip), vehicle: Klucel (hydroxypropylcellulose) (HPC)) read?
**A.** 0 of 6

**Q.** And the survivor count (dose: 200.0 mg/kg/injection, schedule: Q04DX003 (ip), vehicle: Klucel (hydroxypropylcellulose) (HPC))?
**A.** 0 of 6

**Q.** And the survivor count [8]?
**A.** 0 of 6

**Q.** `NNC(=O)CNc1ccc(Br)cc1` was tested. Which survivor count [2] did it give?
**A.** 0 of 3

**Q.** How did the survivor count [2] turn out when `Cc1ccc(S(=O)(=O)[n+]2ccc(C)cc2)cc1` was run?
**A.** 0 of 3

**Q.** For `COCCCN1CC2CCCC1O2` (stereo unspecified), which survivor count [1] is on record?
**A.** 2 of 4

**Q.** With `Cc1ccc(C(C)C)c(OCC(O)Cn2ccnc2)c1` (stereo unspecified) as the compound, how does the survivor count [3] read?
**A.** 0 of 6

**Q.** And the survivor count [1]?
**A.** 0 of 6

**Q.** For `O=[N+]([O-])c1ccc(S(=O)(=O)SC(F)(F)F)cc1`, which survivor count [5] is on record?
**A.** 1 of 6

**Q.** With `O=C(O)C1(C(=O)O)CCC2(CCCCC2)CC1` as the compound, how does the survivor count (dose: 100.0 mg/kg/injection, schedule: Q01DX009 (ip), vehicle: water) read?
**A.** 3 of 6

**Q.** What about the survivor count (dose: 200.0 mg/kg/injection, schedule: Q01DX009 (ip), vehicle: water) of the same compound?
**A.** 0 of 6

**Q.** What about the survivor count (dose: 400.0 mg/kg/injection, schedule: Q01DX009 (ip), vehicle: water) of the same compound?
**A.** 0 of 6

**Q.** With `CC1(CO)CCCC2(C)c3cc(O)ccc3CCC12` (stereo unspecified) as the compound, how does the survivor count (dose: 50.0 mg/kg/injection, schedule: Q01DX009 (ip), vehicle: acetone) read?
**A.** 6 of 6

**Q.** And the survivor count (dose: 200.0 mg/kg/injection, schedule: Q01DX009 (ip), vehicle: acetone)?
**A.** 6 of 6

**Q.** For `Oc1ccc(C2SC(c3ccc(O)cc3)SC(c3ccc(O)cc3)S2)cc1` (stereo unspecified), which survivor count (dose: 100.0 mg/kg/injection, schedule: Q01DX001 (ip), vehicle: carboxymethylcellulose (CMC)) is on record?
**A.** 4 of 4

**Q.** For `COCCCNc1ncnc2[nH]ncc12`, which survivor count (dose: 400.0 mg/kg/injection, schedule: Q04DX003 (ip), vehicle: saline) is on record?
**A.** 3 of 6

**Q.** Which survivor count (dose: 100.0 mg/kg/injection, schedule: Q01DX009 (ip), vehicle: Klucel (hydroxypropylcellulose) (HPC)) does the source give for `CCOC(=O)/C(=C\c1ccccc1)P(=O)(OCC)c1ccccc1` (stereo unspecified) here?
**A.** 3 of 6

**Q.** And the survivor count (dose: 200.0 mg/kg/injection, schedule: Q01DX009 (ip), vehicle: Klucel (hydroxypropylcellulose) (HPC))?
**A.** 1 of 6

**Q.** What about the survivor count (dose: 400.0 mg/kg/injection, schedule: Q01DX009 (ip), vehicle: Klucel (hydroxypropylcellulose) (HPC)) of the same compound?
**A.** 0 of 6

**Q.** What about the survivor count [8] of the same compound?
**A.** 3 of 6

From PubChem BioAssay AID248 (DTP/NCI, 2004)
